Structures can show the parent of a compound that is named as a salt. The list shows a part of the results. Single values are uncertain here, since repeats match poorly.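 Human embryonic kidney cells were transiently transfected with a plasmid bearing a Renilla luciferase gene under the HSV-TK promoter. This first-round screen tests roughly ten thousand compounds for ones that increase reporter output.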
tested on: HEK 293FT; experiment: log relative Renilla luciferase luminescence (reporter expression vs reference, reference not stated) (log (base not stated)); higher = higher recombinant reporter expression; settings: 10 µM; time after transfection 48 h

Structure (SMILES) | log
C[N+](C)(C)CC(O)CC(=O)[O-] (stereo not drawn) [carnitine (dl) hydrochloride] | -0.118
CCCCOc1cc(C(=O)OCCN(CC)CC)ccc1N [benoxinate hydrochloride] | 0.1
CC(=O)Nc1c(I)cc(I)c(C(=O)O)c1I [acetriazoic acid] | 0.29
CC(=O)O[C@]1(C)CC[C@@]23C[C@H]1C(C)(C)[C@@H]2CC[C@H]3C [cedryl acetate] | 0.0797
Cc1cc2cc3c(C)cc(=O)oc3c(C)c2o1 [trioxsalen] | 0.00714
CC(=O)Nc1nnc(S(N)(=O)=O)s1 [acetazolamide] | -0.0145
COC1=CC(=O)C(O)=C/C1=C\C=C\c1ccccc1 [obtusaquinone] | -1.27
CC(C)Oc1ccc2c(=O)c(-c3ccccc3)coc2c1 [ipriflavone] | -1.38
O=C(CCCl)NCCc1ccccc1 [fenaclon] | 0.103
O=C(O)C1=C(CSc2nnnn2CS(=O)(=O)O)CS[C@@H]2[C@H](NC(=O)[C@H](O)c3ccccc3)C(=O)N12 [cefonicid sodium] | 0.113
CC(C)CC(NC(=O)[C@H](C)N)C(=O)O (mixture of isomers) [alanyl-dl-leucine] | -0.0711
NC[C@H](O)c1ccc(O)c(O)c1 [norepinephrine] | -0.0997
CCN(CC)CCNC(=O)c1ccc(N)cc1 [procainamide hydrochloride] | -0.105
O=C(Oc1cc(O)cc2c1C[C@@H](OC(=O)c1cc(O)c(O)c(O)c1)[C@@H](c1cc(O)c(O)c(O)c1)O2)c1cc(O)c(O)c(O)c1 [epigallocatechin 3,5-digallate] | 0.253
CCCCCCOc1ccccc1C(N)=O [exalamide] | 0.00499
CC[C@H]1OC(=O)[C@H](C)[C@@H](O[C@H]2C[C@@](C)(OC)[C@@H](O)[C@H](C)O2)[C@H](C)[C@@H](O[C@@H]2O[C@H](C)C[C@H](N(C)C)[C@H]2O)[C@](C)(O)C[C@@H](C)CN(C)[C@H](C)[C@@H](O)[C@]1(C)O [azithromycin] | 0.245
CN[C@H]1CC[C@@H](c2ccc(Cl)c(Cl)c2)c2ccccc21 [sertraline hydrochloride] | 0.0308
Nc1ccc(S(=O)(=O)Nc2nccs2)cc1 [sulfathiazole] | -0.0356
COC(=O)C(O)c1ccccc1 (stereo not given) [mandelic acid, methyl ester] | -0.138
O=C1c2ccccc2C(=O)c2c(O)c(O)cc(O)c21 [purpurin] | 0.098
Cc1ccc(-c2cc(C(F)(F)F)nn2-c2ccc(S(N)(=O)=O)cc2)cc1 [celecoxib] | 0.255
CC(C)[N+]1(C)[C@@H]2CC[C@H]1C[C@@H](OC(=O)C(CO)c1ccccc1)C2 (stereo not given in full) [ipratropium bromide] | -0.101
CCOC(=O)Nc1nc2ccccc2[nH]1 [lobendazole] | 0.0647
COc1ccc(-c2oc3cc(OC)c(OC)c(OC)c3c(=O)c2OC)cc1OC [hexamethylquercetagetin] | 0.0188

Four entries from above, arranged by heavy-atom count, descending.
Structure (SMILES) | log
CC(C)[N+]1(C)[C@@H]2CC[C@H]1C[C@@H](OC(=O)C(CO)c1ccccc1)C2 (stereo not given in full) [ipratropium bromide] | -0.101
CCCCOc1cc(C(=O)OCCN(CC)CC)ccc1N [benoxinate hydrochloride] | 0.1
Nc1ccc(S(=O)(=O)Nc2nccs2)cc1 [sulfathiazole] | -0.0356
CC(=O)Nc1nnc(S(N)(=O)=O)s1 [acetazolamide] | -0.0145

Later entries

Structure (SMILES) | log
NC[C@H]1O[C@H](O[C@H]2[C@H](O)[C@@H](O[C@H]3O[C@H](CO)[C@@H](O)[C@H](N)[C@H]3O)[C@H](N)C[C@@H]2N)[C@H](N)C[C@@H]1O [tobramycin] | 0.139
O=C(O)c1ccc[n+]([O-])c1 [oxiniacic acid] | 0.0472
CC(C)(CO)[C@@H](O)C(=O)NCCC(=O)O [pantothenic acid(d) na salt] | 0.0161
Cc1cc(C(C)(C)C)cc(C)c1CC1=NCCN1 [xylometazoline hydrochloride] | -0.172
CCN(CC)C(=O)C1(c2ccccc2)CC1CN (stereo not given) [milnacipran hydrochloride] | 0.0866
CCN(CCCCOC(=O)c1ccc(OC)c(OC)c1)C(C)Cc1ccc(OC)cc1 (stereo not given) [mebeverine hydrochloride] | 0.00335
CC#CCn1c(N2CCC[C@@H](N)C2)nc2c1c(=O)n(Cc1nc(C)c3ccccc3n1)c(=O)n2C [linagliptin] | -0.0427
CCN(CC)CCOCCOC(=O)C1(c2ccccc2)CCCC1 [carbetapentane citrate] | 0.063
Cc1cc(O)c2c(c1O)C(=O)c1c(O)cc(C)c(O)c1C2=O [1,4,5,8-tetrahydroxy-2,6-dimethylanthroquinone] | 0.0279
COc1cc(OC)c2ccc(=O)oc2c1 [citropten] | 0.0913
O=C(CCBr)N1CCN(C(=O)CCBr)CC1 [pipobroman] | -0.566
CCCCC1C(=O)N(c2ccccc2)N(c2ccc(O)cc2)C1=O (stereo not given) [oxyphenbutazone] | -0.0548
N[C@H]1CONC1=O [levcycloserine] | 0.0656
O=C(O)c1cc(=O)c(O)c2c(O)c(O)c(O)cc2c1 [purpurogallin-4-carboxylic acid] | 0.104
O=c1c(O)c(-c2ccc(O)cc2)oc2cc(O)cc(O)c12 [kaempferol] | -0.0136
COc1cc2nc(N3CCN(C(=O)C4COc5ccccc5O4)CC3)nc(N)c2cc1OC (stereo not given) [doxazosin mesylate] | -0.16
CC(=O)Nc1ccc(OC(=O)c2ccccc2O)cc1 [acetaminosalol] | 0.0354
COC(=O)C1=CO[C@@H](O[C@@H]2O[C@H](CO)[C@@H](O)[C@H](O)[C@H]2O)[C@H]2[C@@H]1C(=O)C[C@@H]2C [verbenalin] | 0.0273
COC(=O)C[C@H]1C2(C)CC34OC5(C)O[C@@]6([C@H](OC(C)=O)C(OC(C)=O)[C@]7(C)C(/C(=C(/O)C(C)C)C(=O)O[C@H]7c7ccoc7)[C@@]6(O5)[C@H](OC(C)=O)[C@@]3(O)C2OC(=O)C(C)C)[C@]14C (stereo not given in full) [bussein] | 0.0894
CCCOc1ccccc1-c1nc2[nH]nnc2c(=O)[nH]1 [zaprinast] | -0.0677
CCCCCCNC(=O)n1cc(F)c(=O)[nH]c1=O [carmofur] | 0.0261
COc1ccc(Cl)cc1C(=O)NCCc1ccc(S(=O)(=O)NC(=O)NC2CCCCC2)cc1 [glyburide] | -0.121
CC#C[C@]1(O)CC[C@H]2[C@@H]3CCC4=CC(=O)CCC4=C3[C@@H](c3ccc(N(C)C)cc3)C[C@@]21C [mifepristone] | -0.288
COc1cc(O)c2c(=O)c(OC)c(-c3ccc(OC)c(OC)c3)oc2c1 [retusin] | -0.0356

Structure (SMILES) | log
O=C(O)C1=CC(=C(c2ccc(O)c(C(=O)O)c2)c2ccc(O)c(C(=O)O)c2)C=CC1=O [aurin tricarboxylic acid] | -0.0051
C[C@@H]1C/C=C/C=C/C=C/C=C/[C@H](O[C@@H]2O[C@H](C)[C@@H](O)[C@H](N)[C@@H]2O)C[C@@H]2O[C@](O)(C[C@@H](O)C[C@H]3O[C@@H]3/C=C/C(=O)O1)C[C@H](O)[C@H]2C(=O)O [natamycin] | 0.178
CC(C)[C@H](N)C(=O)OCCOCn1cnc2c(=O)nc(N)[nH]c21 [valacyclovir hydrochloride] | 0.0873
NCCC(=O)N[C@@H](Cc1c[nH]cn1)C(=O)O [carnosine] | -0.188
CN(C(=O)CN(CCO)CC(=O)N(C)C(C)(C)Cc1ccccc1)C(C)(C)Cc1ccccc1 [oxethazaine] | 0.0391
COC(=O)N/N=C/c1c[n+]([O-])c2ccccc2[n+]1[O-] [carbadox] | -0.0784
CC1(C)O[C@@H]2C[C@H]3[C@@H]4C[C@H](F)C5=CC(=O)C=C[C@]5(C)[C@@]4(F)[C@@H](O)C[C@]3(C)[C@]2(C(=O)CO)O1 [fluocinolone acetonide] | 0.0787
CCCCCCCC/C=C\CCCCCCCC(=O)O.NCCO [ethanolamine oleate] | 0.121
CC(C)=CCc1c2c(c3occ(-c4ccc(O)c(O)c4)c(=O)c3c1O)C=CC(C)(C)O2 [pomiferin] | 0.075
COc1cc(NS(=O)(=O)c2ccc(N)cc2)ncn1 [sulfamonomethoxine] | 0.0553
Cc1cc(C)nc(NS(=O)(=O)c2ccc(N)cc2)n1 [sulfamethazine] | 0.193
COc1cc2c(cc1OC)Cc1cc(OC)c(OC)cc1Cc1cc(OC)c(OC)cc1C2 [cycloveratrylene] | -0.0219
N[C@@H](CC(=O)N1CCn2c(nnc2C(F)(F)F)C1)Cc1cc(F)c(F)cc1F [sitagliptin monophosphate monohydrate] | 0.0818
C[C@@H]1O[C@@H](O[C@H]2[C@H](Oc3cc(O)c4c(c3)O[C@H](c3ccc(O)cc3)CC4=O)O[C@H](CO)[C@@H](O)[C@@H]2O)[C@H](O)[C@H](O)[C@H]1O [naringin] | 0.0492
C=COCC(F)(F)F [fluroxene] | -0.273
Cc1oc(=O)oc1CN1CCN(c2cc3c(cc2F)c(=O)c(C(=O)O)c2n3C(C)S2)CC1 (stereo not given) [prulifloxacin] | 0.0118
COc1cc(O)c(C(=O)/C=C/c2ccc(O)c(OC)c2)c(OC)c1 [2',4-dihydroxy-3,4',6'-trimethoxychalcone] | 0.047
CC(=O)OCC(=O)[C@@]12OC3(CCCC3)O[C@@H]1C[C@H]1[C@@H]3CCC4=CC(=O)C=C[C@]4(C)[C@@]3(F)[C@@H](O)C[C@@]12C [amcinonide] | 0.0887
C[C@@H]1O[C@@H](OC[C@H]2O[C@@H](Oc3c(-c4ccc(O)c(O)c4)oc4cc(O)cc(O)c4c3=O)[C@H](O)[C@@H](O)[C@@H]2O)[C@H](O)[C@H](O)[C@H]1O [rutin] | 0.19
CCCC(=O)Nc1ccc(OCC(O)CNC(C)C)c(C(C)=O)c1 (stereo not given) [acebutolol hydrochloride] | -0.225
CO/N=C(\C(=O)N[C@@H]1C(=O)N2C(C(=O)O)=C(CSC(=O)c3ccco3)CS[C@H]12)c1csc(N)n1 [ceftiofur hydrochloride] | -0.084
N=C(N)c1ccc(N=NNc2ccc(C(=N)N)cc2)cc1 [diminazene aceturate] | 0.0481

Source: the supplement of paper PMC7024190
